Data as given in PubChem BioAssay AID686937 (Drosophila RNAi Screening Center, 2013)

Purpose: 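Genes whose loss weakens secretory pathway function in fly cells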 (primary screen)
System: Drosophila S2 cells expressing secreted horseradish peroxidase
Reagents: long dsRNA against Drosophila genes
Time to read-out: about 5.5 days (5 days dsRNA, then 12 h reporter induction)
Treatment: reporter expression induced after 5 days of dsRNA, read 12 h later; inducer not stated
Read-out: 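Chemiluminescent measurement of peroxidase in the medium 12 h after reporter induction, following 5 days of dsRNA, given as a z-score per plate; higher means more secretion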
Scale: z-score: higher = more reporter secreted into medium
The deposit covers about 23,000 reagents; this is a random part of those that have a named target and a result. 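Reduced-secretion tags in replicate 1 do not always agree with the z-scores; no criterion for assigning the tags was given.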 Not given: the amount of reagent.

Depletion of Cyp6u1 (Cytochrome P450 6u1) [DRSC05015] resulted in: z-score, replicate 1 = 0.13; z-score, replicate 2 = 0.25.
Depletion of VhaPPA1-2 (Vacuolar H[+] ATPase PPA1 subunit 2) [DRSC16176] came out at: z-score, replicate 1 = 0.63; z-score, replicate 2 = 0.72.
For CG17593 [DRSC00504] the deposit lists z-score, replicate 1 = 0.2; z-score, replicate 2 = 0.32.
CG3592 [DRSC18315] scored z-score, replicate 1 = 0.32; z-score, replicate 2 = 0.33.
Depletion of capu (cappuccino) [DRSC00208] gave: z-score, replicate 1 = 0.19; z-score, replicate 2 = 0.23.
capu (cappuccino) [DRSC00209] showed z-score, replicate 1 = -0.68; z-score, replicate 2 = -0.07.
With knock-down of capu (cappuccino) [DRSC00434], the record shows z-score, replicate 1 = 0.58; z-score, replicate 2 = 0.21.
capu (cappuccino) [DRSC00807] scored z-score, replicate 1 = 0.24; z-score, replicate 2 = 0.46.

Just “z-score, replicate 1”, for 2 of the entries above:
capu (cappuccino) [DRSC00209]: -0.68
capu (cappuccino) [DRSC00434]: 0.58

Continued.
With knock-down of RhoGEF64C (Rho guanine nucleotide exchange factor at 64C) [DRSC08318], the record shows z-score, replicate 1 = 0.35; z-score, replicate 2 = 0.45.
Against RhoGEF64C (Rho guanine nucleotide exchange factor at 64C) [DRSC08319], the values are z-score, replicate 1 = 0.5; z-score, replicate 2 = 0.54.
Against Tmtc1 (Transmembrane O-mannosyltransferase targeting cadherins 1) [DRSC00147] the deposit lists z-score, replicate 1 = 0.45; z-score, replicate 2 = -0.09.
After knock-down of Tmtc1 (Transmembrane O-mannosyltransferase targeting cadherins 1) [DRSC00151] the results were z-score, replicate 1 = -0.14; z-score, replicate 2 = -0.15.
With knock-down of Tmtc1 (Transmembrane O-mannosyltransferase targeting cadherins 1) [DRSC00314] the results were z-score, replicate 1 = 0.1; z-score, replicate 2 = -0.01.
Knock-down of Tmtc1 (Transmembrane O-mannosyltransferase targeting cadherins 1) [DRSC00411] gave: z-score, replicate 1 = 0.1; z-score, replicate 2 = -0.07.
For CG4017 [DRSC02733], the values are z-score, replicate 1 = 0.53; z-score, replicate 2 = 0.15.
BomS5 (Bomanin Short 5) [DRSC22306] gave z-score, replicate 1 = -0.14; z-score, replicate 2 = -0.38.
